Experimental findings from PubChem BioAssay AID328 (DTP/NCI, 2004) are described below.

The list is a part of this screen's results and no random one: its compounds were picked by chemical class. Other doses and runs of a compound may be missing. T/C is the treated group as % of the vehicle group. Some doses have a count of surviving animals in place of a T/C: the source files T/C as zero there, which appears to mark a toxic dose or a test without result, not a measured value. Some doses without a T/C left all or most animals alive at the check, yet need not have been tolerated: survival well below the control is almost never listed, so the zero probably covers shortened survival too. Counts of survivors are from the toxicity check (mostly the fifth day) where no day follows; animals may have died later. Schedules are NCI's codes, read here as Q, the interval in days (D) or hours (H), X, the number of doses. For survival time, the PubChem record calls one and a half times the control and up active, and a quarter to a half above the control has no call in these data; cut-offs in other NCI protocols can differ. Some entries were tested several times; the values are given in rising order. Some T/C values carry the count of animals alive at the toxicity check (mostly the fifth day); without a count or a note in brackets, all were alive then.

The assay has as its system BDF1 mice, P388 leukemia ip, median survival T/C. As to the kind of experiment: NCI In Vivo Anticancer Drug Screen. Data for tumor model P388 Leukemia (intraperitoneal) in B6D2F1 (BDF1) mice. The note with it: T/C endpoint: median survival time, higher T/C = longer survival. The procedure, abridged: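 Compound-treated tumour-bearing mice were compared with vehicle-treated controls. Survival was recorded, and the value is the treated-group measurement divided by the control-group measurement (T/C).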

Where [1] appears, read: dose: 50.0 mg/kg/injection, schedule: Q04DX003 (ip), vehicle: saline.
Setting [2] is: dose: 100.0 mg/kg/injection, schedule: Q04DX003 (ip), vehicle: saline.
The mark [3] stands for this setting: dose: 200.0 mg/kg/injection, schedule: Q04DX003 (ip), vehicle: saline.
Where [4] appears, read: dose: 75.0 mg/kg/injection, schedule: Q04DX003 (ip), vehicle: saline.

Regarding `O=P1(N(CCCl)CCCl)OCCCN1CCCl` (configuration not stated), the T/C is 90 % of control (dose: 0.8 mg/kg/injection, schedule: Q01DX010 (ip), vehicle: carboxymethylcellulose (CMC)); 90 % of control [5 of 6 alive] (dose: 1.5 mg/kg/injection, schedule: Q01DX010 (ip), vehicle: carboxymethylcellulose (CMC)); 100 % of control (dose: 3.0 mg/kg/injection, schedule: Q01DX010 (ip), vehicle: carboxymethylcellulose (CMC)); 90 % of control [5 of 6 alive] (dose: 6.0 mg/kg/injection, schedule: Q01DX010 (ip), vehicle: carboxymethylcellulose (CMC)); 261 % of control (dose: 12.5 mg/kg/injection, schedule: Q01DX010 (ip), vehicle: carboxymethylcellulose (CMC)); 300 % of control (dose: 25.0 mg/kg/injection, schedule: Q01DX010 (ip), vehicle: carboxymethylcellulose (CMC)). Further, where the note is “dose: 100.0 mg/kg/injection, schedule: Q01DX010 (ip), vehicle: carboxymethylcellulose (CMC)”, the T/C is 94 % of control [4 of 6 alive]. The survivor count (dose: 50.0 mg/kg/injection, schedule: Q01DX010 (ip), vehicle: carboxymethylcellulose (CMC)) is 6 of 6 and the survivor count (dose: 200.0 mg/kg/injection, schedule: Q01DX010 (ip), vehicle: carboxymethylcellulose (CMC)) is 6 of 6.
`ClC1CSC1`: the T/C was 108 % of control (dose: 8.25 mg/kg/injection, schedule: Q01DX009 (ip), vehicle: saline with Tween-80); 108 % of control (dose: 12.5 mg/kg/injection, schedule: Q01DX009 (ip), vehicle: saline with Tween-80); 116 % of control (dose: 18.0 mg/kg/injection, schedule: Q01DX009 (ip), vehicle: Klucel (hydroxypropylcellulose) (HPC)); 108 % of control (dose: 18.7 mg/kg/injection, schedule: Q01DX009 (ip), vehicle: saline with Tween-80); 154 % of control (dose: 18.75 mg/kg/injection, schedule: Q01DX009 (ip), vehicle: other); 116 % of control (dose: 27.0 mg/kg/injection, schedule: Q01DX009 (ip), vehicle: Klucel (hydroxypropylcellulose) (HPC)). Moreover, the T/C was 195 % of control [5 of 6 alive] (dose: 37.5 mg/kg/injection, schedule: Q01DX009 (ip), vehicle: other); 116 % of control (dose: 40.0 mg/kg/injection, schedule: Q01DX009 (ip), vehicle: Klucel (hydroxypropylcellulose) (HPC)); 116 % of control (dose: 60.0 mg/kg/injection, schedule: Q01DX009 (ip), vehicle: Klucel (hydroxypropylcellulose) (HPC)); 222 % of control [5 of 6 alive] (dose: 75.0 mg/kg/injection, schedule: Q01DX009 (ip), vehicle: other); 105 % of control [5 of 6 alive] (dose: 88.0 mg/kg/injection, schedule: Q01DX009 (ip), vehicle: Klucel (hydroxypropylcellulose) (HPC)); 235 % of control (dose: 100.0 mg/kg/injection, schedule: Q01DX009 (ip), vehicle: saline sonified). For the same molecule, the T/C is 300 % of control (dose: 200.0 mg/kg/injection, schedule: Q01DX009 (ip), vehicle: saline sonified) and 130 % of control (dose: 400.0 mg/kg/injection, schedule: Q01DX009 (ip), vehicle: saline sonified). Besides, the survivor count is listed as 3 of 6 (dose: 132.0 mg/kg/injection, schedule: Q01DX009 (ip), vehicle: Klucel (hydroxypropylcellulose) (HPC)); 2 of 6 (dose: 200.0 mg/kg/injection, schedule: Q01DX009 (ip), vehicle: Klucel (hydroxypropylcellulose) (HPC)); 1 of 6 (dose: 300.0 mg/kg/injection, schedule: Q01DX009 (ip), vehicle: Klucel (hydroxypropylcellulose) (HPC)).
For `O=[N+]([O-])c1ccc2nn([N+](=O)[O-])c(Cl)c2c1`, the T/C (dose: 50.0 mg/kg/injection, schedule: Q01DX009 (ip), vehicle: saline with Tween-80) is 97 % of control; the T/C (dose: 100.0 mg/kg/injection, schedule: Q01DX009 (ip), vehicle: saline with Tween-80) was 95 % of control; the T/C (dose: 200.0 mg/kg/injection, schedule: Q01DX009 (ip), vehicle: saline with Tween-80) was 106 % of control.
Turning to `C1CCC2(CC1)C[N+]21CCCC1`, the T/C reads like this: under setting [1], 90 % of control; under setting [2], 100 % of control; under setting [3], 104 % of control.
In the case of `O=P(Nc1ncccn1)(N1CC1)N1CC1`, the T/C is 113 % of control (dose: 1.8 mg/kg/injection, schedule: Q04DX003 (ip), vehicle: saline); 109 % of control (dose: 2.6 mg/kg/injection, schedule: Q04DX003 (ip), vehicle: saline); 153 % of control (dose: 3.3 mg/kg/injection, schedule: Q01DX009 (ip), vehicle: saline); 104 % of control (dose: 4.0 mg/kg/injection, schedule: Q04DX003 (ip), vehicle: saline); 150 % of control (dose: 5.0 mg/kg/injection, schedule: Q01DX009 (ip), vehicle: saline); 131 % of control (dose: 6.0 mg/kg/injection, schedule: Q04DX003 (ip), vehicle: saline). The T/C was 159 % of control (dose: 6.3 mg/kg/injection, schedule: Q04DX003 (ip), vehicle: saline); 171 and 186 % of control (dose: 8.0 mg/kg/injection, schedule: Q01DX009 (ip), vehicle: saline); 177 % of control (dose: 9.5 mg/kg/injection, schedule: Q04DX003 (ip), vehicle: saline); 222 % of control (dose: 12.0 mg/kg/injection, schedule: Q01DX009 (ip), vehicle: saline); 268 % of control (dose: 12.5 mg/kg/injection, schedule: Q01DX009 (ip), vehicle: saline); 190 % of control (dose: 14.5 mg/kg/injection, schedule: Q04DX003 (ip), vehicle: saline). Further, the T/C (dose: 18.0 mg/kg/injection, schedule: Q01DX009 (ip), vehicle: saline) was 272 % of control; the T/C (dose: 22.0 mg/kg/injection, schedule: Q04DX003 (ip), vehicle: saline) is 196 and 204 % of control; the T/C (dose: 25.0 mg/kg/injection, schedule: Q01DX009 (ip), vehicle: saline) was 86 and 110 % of control; the T/C (dose: 25.0 mg/kg/injection, schedule: Q04DX003 (ip), vehicle: saline) was 166 % of control; the T/C (dose: 33.0 mg/kg/injection, schedule: Q04DX003 (ip), vehicle: saline) was 230 and 272 % of control; the T/C under setting [1] is on record as 118, 230, 238 % of control. Further, the T/C was 100 % of control [5 of 6 alive] under setting [4] and 88 % of control [4 of 6 alive] under setting [2]. Besides, the survivor count runs as follows: (dose: 50.0 mg/kg/injection, schedule: Q01DX009 (ip), vehicle: saline) 6 of 6; under setting [4], 6 of 6; (dose: 100.0 mg/kg/injection, schedule: Q01DX009 (ip), vehicle: saline) 6 of 6.
Regarding `CC(C)SC(OC(=O)COc1ccc(Cl)cc1Cl)C(Cl)(Cl)Cl` (configuration not stated), the T/C by setting is: (dose: 100.0 mg/kg/injection, schedule: Q04DX003 (ip), vehicle: other) 109 % of control; (dose: 200.0 mg/kg/injection, schedule: Q04DX003 (ip), vehicle: other) 109 % of control; (dose: 400.0 mg/kg/injection, schedule: Q04DX003 (ip), vehicle: other) 109 % of control [5 of 6 alive].
`CC[C@H](C)[C@@H]1NC(=O)/C(=C(\C)O)C1=O`: under setting [1], the T/C is 113 % of control. Besides, the survivor count under setting [2] is 5 of 8; the survivor count under setting [3] is given as 1 of 8; the survivor count (dose: 400.0 mg/kg/injection, schedule: Q04DX003 (ip), vehicle: saline) is 0 of 8.
